In PubChem BioAssay AID1347076 (National Center for Advancing Translational Sciences (NCATS), 2019):
Out of some 400,000 compounds screened, about 13,000 (3.2%) were called active. Inconclusive means that the source gave no clear call. Such entries were picked first, then a sample of the others. The call rests on the fitted dose curve; in most records, active means well fitted cell-killing curve with a large enough effect; inconclusive means small, poorly fitted or top-dose-only effect, or effect the other way; inactive means flat fitted curve, though single readings scatter. Where the call is inconclusive, the potency comes from a doubtful curve fit.

Assay: qHTS assay for MDR1-selective chemotherapeutics: Primary screen using the drug-selected MDR subline cells KB-V1; further: nearly all actives have a fitted effect of over 60% in size
Conditions: KB-V1 MDR cells viability, CellTiter-Glo, 72 h; activity change, negative = cytotoxicity: at 46.1 µM (top of the series)
Method in brief: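 Readout: CellTiter-Glo luminescence, 10 min after addition. Cells: KB-V1 MDR subline, 72 h at 37 degrees C with compound. Analysis: corrected, normalized data fitted to concentration-effect curves.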
On the % scale 0 is the no-effect control and ±100 the full control effect; potency means the concentration at half of the fitted maximal effect.

Row | SMILES | Potency | activity change, negative = cytotoxicity
1 | COc1cc(NC(=O)CNc2cccc(S(=O)(=O)N3CCOCC3)c2)cc(OC)c1 | inconclusive: 16.4 µM [cytotoxic, single point] | 
2 | Cc1ccc(OCc2n[nH]c(=S)n2C2CCCCC2)cc1 | inconclusive: 18.4 µM [cytotoxic, single point] | 
3 | O=[N+]([O-])c1cccc(C(=S)N2CCN(c3ccccc3F)CC2)c1 | inconclusive: 32.6 µM [cytotoxic, single point] | 
4 | COc1cccc(C(C)(O)c2nc(-c3ccc(C)c(C)c3)cs2)c1 (configuration not stated) | inactive | 
5 | CC(C)c1ccc(CNC(=O)C(=O)NCC2CCCO2)cc1 (configuration not stated) | inconclusive: 20.6 µM [cytotoxic, single point] | 
6 | Cc1ccc(NC(=O)CN(C)C(=O)Cn2cc(C(F)(F)F)cc(Cl)c2=O)cc1 | inconclusive: 10.3 µM [cytotoxic, partial curve, poor fit] | 
7 | O=S(=O)(c1ccccc1)c1nc(-c2ccco2)oc1NCc1ccco1 | inconclusive: 7.31 µM [cytotoxic, partial curve] | 
8 | CCN(C(=O)COc1ccc2ccc(=O)oc2c1)C1CCCCC1 | active: 18.4 µM | 
9 | CCOC(=O)c1c2c(n(Cc3ccccc3)c1C)C(=O)C(=O)c1ccccc1-2 | active: 3.26 µM | 
10 | COc1ccc(OC)c(N/C(C)=C/C(=O)c2ccccc2)c1 | inconclusive: 29.1 µM [cytotoxic, single point] | 
11 | CN(CC(O)CON=C1c2ccccc2-c2ccccc21)S(=O)(=O)c1ccc(Br)cc1 (configuration not stated) | active: 18.4 µM | 
12 | CC1Cc2ccccc2N1C(=O)CN1CCN(Cc2ccccc2)CC1 (configuration not stated) | inactive | 
13 | Cc1cccc(Cc2nnc(CCC(=O)N3CCCCC3c3nccs3)o2)c1 (configuration not stated) | inconclusive: 32.6 µM [cytotoxic, single point] | 
14 | Cc1ccc(C)c(CN2C(=O)c3ccccc3S(=O)c3ccc(C(=O)N(C)Cc4ccccc4)cc32)c1 (configuration not stated) | inactive | 
15 | Oc1ccc(Cl)cc1C1=NNC(c2cc(Br)cc3c2OCOC3)C1 (configuration not stated) | inactive | 
16 | O=C(Nc1ccc(Cl)cc1)N1CCOC12CCC1(CC2)OCCO1 | inactive | 
17 | Cc1cccc(N2C(=O)c3cccc4c(N(C)CCO)ccc(c34)C2=O)c1 | inconclusive: 20.6 µM [cytotoxic, single point] | 
18 | CSc1ccc(CN2CCC2(C)C(=O)NCc2ccccc2Br)cc1 (configuration not stated) | inactive | 
19 | Cc1cccn2cc(CCNC(=O)Cc3cccs3)nc12 |  | inconclusive: -2.98%
20 | CC(=O)c1ccc(NC(=O)COC(=O)c2c3c(nc4ccccc24)/C(=C\c2cccs2)CCC3)cc1 | active: 16.4 µM | 
21 | CCCCOc1ccc(CNC(=O)c2ccc(NC(=O)N3CCSc4ncccc43)cc2)cc1 | inactive | 
22 | Cc1ccc(-n2ncc(C(=O)N3CCC(c4ccccc4)C3)c2C2CCN(C(=O)OC(C)(C)C)CC2)cc1 (configuration not stated) | inactive | 
23 | C(=N\Nc1nc2ccccc2s1)/c1ccco1 | inconclusive: 23.1 µM [cytotoxic, single point] | 
24 | Cn1ncc(S(=O)(=O)Cc2ccccc2)c(Cl)c1=O | inactive | 

Row | SMILES | Potency | activity change, negative = cytotoxicity
25 | CC(Sc1nnc(C(C)Oc2ccc(F)cc2)o1)C(=O)NCc1ccc2c(c1)OCO2 (configuration not stated) | inactive | 
26 | CN(C)c1ccc(C(C(=O)NCc2ccccc2)N(Cc2ccco2)C(=O)c2snc(C(N)=O)c2N)cc1 (configuration not stated) | inconclusive: 29.1 µM [cytotoxic, single point] | 
27 | O=S(=O)(Nc1cccc(-c2ccc(N3CCOCC3)nn2)c1)c1ccc(F)cc1F | inactive | 
28 | CCCc1nn2c(C)c(-c3ccccc3)nc2s1 | inactive | 
29 | CC(C)(C)Cc1c(-c2ccc(F)cc2)nc2ccc(Br)cn12 | inconclusive: 29.1 µM [cytotoxic, single point] | 
30 | O=C(c1ccoc1)N1CCC(CO)(CCc2ccccc2)CC1 | inactive | 
31 | Cc1ccc(S(=O)(=O)N2CCC(=O)N(CCOCc3ccc(C(F)(F)F)cc3)CC2)cc1 | inconclusive: 32.6 µM [cytotoxic, single point] | 
32 | Cc1cc(C)c2oc(C(=O)Nc3ccc(S(=O)(=O)N(C)c4ccccc4)cc3)cc(=O)c2c1 | inconclusive: 25.9 µM [rising, single point] | 
33 | COc1cccc(/C=C2\SC(=S)N(C(C(=O)O)c3ccccc3)C2=O)c1OC (configuration not stated) | inconclusive: 5.8 µM [rising, partial curve, poor fit] | 
34 | COCCNC(=S)N(CCCO)Cc1cc2cc3c(cc2[nH]c1=O)OCCO3 | inconclusive: 32.6 µM [cytotoxic, single point] | 
35 | O=C1C2CC=CCC2C(=O)N1c1n[nH]c(CCc2ccccc2)n1 (configuration not stated) | inactive | 
36 | O=C1C2CC=CCC2C(=O)N1Cc1ccccc1 (configuration not stated) | inactive | 
37 | Cc1nc(NC(=O)/C=C/c2ccccc2)sc1C(=O)N(C)C | inconclusive: 8.2 µM [cytotoxic, partial curve] | 
38 | c1ccc2c(Cn3ccnc3)cccc2c1 | inconclusive: 23.1 µM [cytotoxic, partial curve, poor fit] | 
39 | Cc1ccc(C(=O)COC(=O)CNC(=O)Cc2ccccc2)cc1[N+](=O)[O-] | inconclusive: 20.6 µM [rising, partial curve, poor fit] | 
40 | COc1ccc(-n2nnnc2/C=C\Nc2ccccc2C(=O)c2ccccc2)cc1 | active: 4.61 µM | 
41 | CC(=O)Nc1ccccc1C(=O)C(=O)Nc1ccc(F)cc1 | inconclusive: 16.4 µM [cytotoxic, single point] | 
42 | Cc1csc(NC(=O)CCC(=O)N(CC(=O)NC2CCCC2)c2ccccc2)n1 | inconclusive: 20.6 µM [cytotoxic, single point] | 
43 | CC(=O)N1CCCc2cc(S(=O)(=O)N3CCCC(C(=O)Nc4ccc(C)c(C)c4)C3)ccc21 (configuration not stated) | inactive | 
44 | CC(C)(C)c1ccc(S(=O)(=O)Nc2ccc(O)c(Sc3nc4ccccc4s3)c2)cc1 | inconclusive: 23.1 µM [cytotoxic, partial curve, poor fit] | 
45 | Oc1ccccc1N=Nc1nc(-c2ccccc2)c(-c2ccccc2)[nH]1 | active: 0.92 µM | 
46 | Cc1cc(S(=O)(=O)NCCCN2CCOCC2)ccc1Br | inactive | 
47 | CN1OC[C@@H]2CN(C(=O)NC3CCCCC3)[C@H](c3ccc(N4CCCCC4)cc3)C[C@@H]21 | inactive | 

Grouped by structure, the entries above with a CF3 group
Row | SMILES | Potency | activity change, negative = cytotoxicity
6 | Cc1ccc(NC(=O)CN(C)C(=O)Cn2cc(C(F)(F)F)cc(Cl)c2=O)cc1 | inconclusive: 10.3 µM [cytotoxic, partial curve, poor fit] | 
31 | Cc1ccc(S(=O)(=O)N2CCC(=O)N(CCOCc3ccc(C(F)(F)F)cc3)CC2)cc1 | inconclusive: 32.6 µM [cytotoxic, single point] | 
